Reference: article PMC12160554

Chains of the proteins cited; added tags and fusions are not shown. Lines headed by an entry give the natural chain unless they say otherwise; changes in a name come on top.
UniProt Q62673: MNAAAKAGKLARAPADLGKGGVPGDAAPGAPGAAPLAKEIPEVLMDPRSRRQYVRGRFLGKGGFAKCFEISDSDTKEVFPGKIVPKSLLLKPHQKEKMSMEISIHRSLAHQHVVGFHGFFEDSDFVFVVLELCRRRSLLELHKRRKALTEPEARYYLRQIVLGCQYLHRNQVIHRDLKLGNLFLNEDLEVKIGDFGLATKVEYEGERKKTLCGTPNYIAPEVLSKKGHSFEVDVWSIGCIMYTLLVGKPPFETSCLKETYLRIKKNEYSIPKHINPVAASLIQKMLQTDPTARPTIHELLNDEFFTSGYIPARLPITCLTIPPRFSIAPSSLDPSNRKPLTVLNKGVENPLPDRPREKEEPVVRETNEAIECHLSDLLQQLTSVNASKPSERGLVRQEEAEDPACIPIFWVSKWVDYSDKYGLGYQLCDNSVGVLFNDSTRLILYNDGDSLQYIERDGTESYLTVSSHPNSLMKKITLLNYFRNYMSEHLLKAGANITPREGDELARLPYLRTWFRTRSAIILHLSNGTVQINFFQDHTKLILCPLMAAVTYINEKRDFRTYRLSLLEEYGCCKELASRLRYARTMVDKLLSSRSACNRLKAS
UniProt Q91Z63: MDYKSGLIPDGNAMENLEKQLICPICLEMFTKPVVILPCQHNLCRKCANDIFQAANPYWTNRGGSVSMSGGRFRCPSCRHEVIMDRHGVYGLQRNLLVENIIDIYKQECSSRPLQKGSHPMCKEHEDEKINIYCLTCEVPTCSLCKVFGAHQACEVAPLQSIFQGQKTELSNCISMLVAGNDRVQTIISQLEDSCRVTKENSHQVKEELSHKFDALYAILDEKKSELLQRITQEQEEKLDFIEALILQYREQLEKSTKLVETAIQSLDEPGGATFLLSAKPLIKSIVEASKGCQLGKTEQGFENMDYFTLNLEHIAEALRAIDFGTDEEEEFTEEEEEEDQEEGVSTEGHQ

What was measured:
Myc-ACE full-length = target: T1, Myc-ACE full-length (UniProt P47820); assay: co-IP; NP cells co-transfected with Myc-ACE (FL or deletion mutants) and Flag-TRIM63 (FL or deletion mutants); IP with anti-Myc or anti-Flag antibody, western blot; also with shPTEN (interaction promoted)
T1 sequence: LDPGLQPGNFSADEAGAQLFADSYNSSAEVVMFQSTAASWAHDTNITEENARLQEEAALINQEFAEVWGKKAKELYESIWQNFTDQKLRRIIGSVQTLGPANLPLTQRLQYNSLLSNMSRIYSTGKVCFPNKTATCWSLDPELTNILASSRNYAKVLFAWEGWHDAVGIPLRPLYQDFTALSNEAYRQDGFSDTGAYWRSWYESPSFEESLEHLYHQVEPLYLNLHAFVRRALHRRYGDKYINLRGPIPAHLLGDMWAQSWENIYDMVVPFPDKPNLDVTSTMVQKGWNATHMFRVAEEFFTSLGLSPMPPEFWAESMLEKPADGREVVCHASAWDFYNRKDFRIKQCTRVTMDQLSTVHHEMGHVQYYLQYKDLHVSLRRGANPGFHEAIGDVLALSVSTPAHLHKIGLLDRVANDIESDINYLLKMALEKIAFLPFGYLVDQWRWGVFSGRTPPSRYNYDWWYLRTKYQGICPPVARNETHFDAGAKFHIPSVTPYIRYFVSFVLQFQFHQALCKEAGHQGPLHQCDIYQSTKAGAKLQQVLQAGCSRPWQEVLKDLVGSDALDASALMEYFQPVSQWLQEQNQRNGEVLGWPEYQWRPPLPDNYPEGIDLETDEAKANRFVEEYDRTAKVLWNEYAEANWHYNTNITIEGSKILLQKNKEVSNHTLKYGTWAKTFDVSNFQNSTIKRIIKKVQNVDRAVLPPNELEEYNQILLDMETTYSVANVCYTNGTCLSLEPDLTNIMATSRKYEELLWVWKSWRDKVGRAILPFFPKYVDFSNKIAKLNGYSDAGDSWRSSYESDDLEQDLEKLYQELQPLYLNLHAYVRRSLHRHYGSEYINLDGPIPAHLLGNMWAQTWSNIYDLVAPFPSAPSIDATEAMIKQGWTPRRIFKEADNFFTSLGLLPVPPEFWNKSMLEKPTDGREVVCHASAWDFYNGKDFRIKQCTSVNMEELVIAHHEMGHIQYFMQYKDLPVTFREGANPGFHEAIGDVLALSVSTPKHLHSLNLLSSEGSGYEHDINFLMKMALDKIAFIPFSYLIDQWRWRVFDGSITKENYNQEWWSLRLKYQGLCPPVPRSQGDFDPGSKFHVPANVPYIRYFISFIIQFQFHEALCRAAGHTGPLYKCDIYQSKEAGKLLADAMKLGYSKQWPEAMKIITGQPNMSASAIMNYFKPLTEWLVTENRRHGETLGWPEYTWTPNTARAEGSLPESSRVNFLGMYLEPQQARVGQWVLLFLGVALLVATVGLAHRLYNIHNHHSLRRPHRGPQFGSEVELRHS

His-PLK1 = His-PLK1 (UniProt Q62673); assay: co-IP; NP cells co-transfected with His-PLK1 and Flag-TRIM63 (FL or deletion mutants); IP with anti-His antibody (also anti-Flag in Figures 7J-K, 8E-F), western blot; also with shPTEN or shACE (interaction enhanced)
Flag-TRIM63 full-length = Flag-TRIM63 full-length (UniProt Q91Z63); assay: co-IP; NP cells co-transfected with Myc-ACE (FL or deletion mutants) and Flag-TRIM63 (FL or deletion mutants); IP with anti-Myc or anti-Flag antibody, western blot; also with shPTEN (interaction promoted)

Row | Substance | binding (Myc-ACE full-length) | binding (His-PLK1) | binding (Flag-TRIM63 full-length)
1 | Flag-TRIM63 ΔC (from UniProt Q91Z63) (domain or fragment) | no binding | no binding | 
2 | Flag-TRIM63 ΔR (from UniProt Q91Z63) (domain or fragment) | binds | binds | 
3 | Myc-ACE ΔM3 (from UniProt P47820) (domain or fragment) |  |  | no binding
4 | Flag-TRIM63 ΔB (from UniProt Q91Z63) (domain or fragment) | no binding | no binding | 
5 | Myc-ACE ΔM1 (from UniProt P47820) (domain or fragment) |  |  | binds
6 | Myc-ACE ΔM2 (from UniProt P47820) (domain or fragment) |  |  | no binding

No constants are given. Whether binding was seen depends on the method and setting. In cells and extracts the contact can be indirect. Binding calls can cover weak binding; strength is not graded here. For part of these data: Tags and fused reporters may be left off the sequences shown.
